In patent US20250288657A1:
These are yes or no findings as the source states them, for the method shown. Some entries that bind do so weakly or less than the wild type.

Columns and labels:
[1] = biological target: human von Willebrand Factor (vWF) (Invitrogen #RP-43132) (human) (UniProt P04275); test: direct ELISA
[2] = biological target: human von Willebrand Factor (vWF) (Invitrogen #RP-43132) (human) (UniProt P04275); test: direct ELISA, coated SpA protein, human vWF, anti-vWF detection

Substance: SpA_WT-49-339 (from UniProt A0A0H3K686 37-327)
- binding [1]: binds
- binding [2]: binds
